Some entries share one result that the patent states for a list of compounds.
Target: recombinant human AMPK complex 1 (containing α1β1γ1) (Homo sapiens, UniProt Q13131+Q9Y478)
Experiment: […] (in vitro AMPK activation assay)
Assay type: biochemical
Conditions: recombinant human AMPK complex 1 (α1β1γ1)
Experimental: Recombinant viruses were generated by cotransfection of AMPK/pBacPak9 clones with Baculogold baculovirus DNA (Pharmingen) in spodoptera frugiperda 21 cells according to the manufacturer's instructions. Each round of virus amplification was performed for 5 days in Grace's medium containing 10% serum. Virus that had been subjected to three rounds of amplification was used for all protein production procedures. To express the AMPK complex, sf21 cells were adapted to serum free medium (SF900 II, Invitrogen) by sequential dilution from serum containing stocks into SF900 II medium and maintained in shaker flasks at 90 rpm at 27° C. The recombinant AMPK enzyme complex was produced by triple infection, one recombinant virus for each of the subunits, in sf21 cells under serum free conditions. […] Cells were harvested by centrifugation at 10,000×g for 15 minutes after 72 hours of infection with viruses. The insect cell pellet from 2 liters of culture was resuspended in 50 ml lysis buffer (20 mM Tris-HCl, 50 mM NaCl, 50 mM NaF, 30 mM Na PPi, 0.25 M sucrose, 10 mM ZnCl2, 2 mM DTT, 0.4 mg/ml digitonin) and subjected to two cycles of freeze-thaw lysis in a dry-ice ethanol bath. Insoluble material was removed by centrifugation at 10,000×g and the supernatant was fractionated with use of polyethylene glycol (PEG).
The total in vitro AMPK activation assay volume is 50 μl in a 96-well plate. […] The reaction was initiated with addition of the enzyme. After 30-minute incubation at 30° C., the reaction was stopped by addition of 80 μl 1% H3PO4. Aliquots (100 μl) were transferred to 96-well MultiScreen plates (MAPHNOB50; Millipore Corp., Bedford, Mass., USA). The plate was washed three times with 1% H3PO4 followed by detection in a Top-count. The counts per minute from the basal activity (the reaction without activator) was subtracted from each well and the data were expressed as % maximum AMP activation followed by EC50 calculation.

Chains of the proteins cited; added tags and fusions are not shown. Lines headed by an entry give the natural chain unless they say otherwise; changes in a name come on top.
UniProt Q13131: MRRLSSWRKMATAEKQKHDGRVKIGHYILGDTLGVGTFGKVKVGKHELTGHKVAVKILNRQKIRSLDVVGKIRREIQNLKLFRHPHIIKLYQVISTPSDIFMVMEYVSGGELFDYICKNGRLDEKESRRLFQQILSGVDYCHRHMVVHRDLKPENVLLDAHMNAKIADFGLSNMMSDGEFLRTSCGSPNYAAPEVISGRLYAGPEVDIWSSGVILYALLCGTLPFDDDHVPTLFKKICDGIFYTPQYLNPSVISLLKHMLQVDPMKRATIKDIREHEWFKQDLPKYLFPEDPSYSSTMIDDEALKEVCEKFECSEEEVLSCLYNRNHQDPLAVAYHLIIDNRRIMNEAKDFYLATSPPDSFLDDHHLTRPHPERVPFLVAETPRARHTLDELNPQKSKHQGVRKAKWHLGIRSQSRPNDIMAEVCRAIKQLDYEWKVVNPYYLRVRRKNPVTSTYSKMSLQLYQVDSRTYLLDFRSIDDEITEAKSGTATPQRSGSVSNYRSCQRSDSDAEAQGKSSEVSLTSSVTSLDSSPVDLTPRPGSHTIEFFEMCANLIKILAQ
UniProt Q9Y478: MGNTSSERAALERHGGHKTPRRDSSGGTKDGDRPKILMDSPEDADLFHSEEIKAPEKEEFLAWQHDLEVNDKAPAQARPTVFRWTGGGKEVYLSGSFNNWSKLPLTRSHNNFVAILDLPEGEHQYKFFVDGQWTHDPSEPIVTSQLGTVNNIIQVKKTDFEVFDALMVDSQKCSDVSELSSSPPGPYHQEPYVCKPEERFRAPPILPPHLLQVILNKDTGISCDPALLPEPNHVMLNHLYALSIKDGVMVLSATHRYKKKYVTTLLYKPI

SMILES | EC50
NC(=O)Nc1cccc(Oc2nc3cc(-c4ccc(-c5ccccc5)cc4)c(Cl)cc3[nH]2)c1 [Example 2, [3-(5-Biphenyl-4-yl-6-chloro-1H-benzoimidazol-2-yloxy)-phenyl]-urea] | < 10 µM
CC(=O)Nc1cccc(Oc2nc3cc(-c4ccc(-c5ccccc5)cc4)c(Cl)cc3[nH]2)c1 [Example 3, N-[3-(5-Biphenyl-4-yl-6-chloro-1H-benzoimidazol-2-yloxy)-phenyl]-acetamide] | < 10 µM
CCOC(=O)c1c(C)[nH]c2ccc(Oc3nc4cc(-c5ccc(-c6ccccc6)cc5)c(Cl)cc4[nH]3)cc12 [Example 4, 5-(5-Biphenyl-4-yl-6-chloro-1H-benzoimidazol-2-yloxy)-2-methyl-1H-indole-3-carboxylic acid ethyl ester] | < 10 µM
Cc1[nH]c2ccc(Oc3nc4cc(-c5ccc(-c6ccccc6)cc5)c(Cl)cc4[nH]3)cc2c1C(=O)O [Example 5, 5-(5-Biphenyl-4-yl-6-chloro-1H-benzoimidazol-2-yloxy)-2-methyl-1H-indole-3-carboxylic acid] | < 10 µM
COC(=O)C1(c2ccc(Oc3nc4cc(-c5ccc(-c6ccccc6)cc5)c(Cl)cc4[nH]3)cc2)CC1 [Example 6, 1-[4-(5-Biphenyl-4-yl-6-chloro-1H-benzoimidazol-2-yloxy)-phenyl]-cyclopropanecarboxylic acid methyl ester] | < 10 µM
O=C(O)C1(c2ccc(Oc3nc4cc(-c5ccc(-c6ccccc6)cc5)c(Cl)cc4[nH]3)cc2)CC1 [Example 7, 1-[4-(5-Biphenyl-4-yl-6-chloro-1H-benzoimidazol-2-yloxy)-phenyl]-cyclopropanecarboxylic acid] | < 10 µM
O=C(O)Cc1ccc(Oc2nc3cc(-c4ccc(-c5ccccc5)cc4)c(Cl)cc3[nH]2)cc1C(=O)O [Example 8, 5-(5-Biphenyl-4-yl-6-chloro-1H-benzoimidazol-2-yloxy)-2-carboxymethyl-benzoic acid] | < 10 µM
CCOC(=O)Cc1ccc(Oc2nc3cc(-c4ccc(-c5ccccc5)cc4)c(Cl)cc3[nH]2)cc1C(=O)OCC [Example 9, 5-(5-Biphenyl-4-yl-6-chloro-1H-benzoimidazol-2-yloxy)-2-ethoxycarbonylmethyl-benzoic acid ethyl ester] | < 10 µM
COC(=O)c1ccc(Oc2nc3cc(-c4ccc(-c5ccccc5)cc4)c(Cl)cc3[nH]2)cc1C(=O)OC [Example 10, 4-(5-Biphenyl-4-yl-6-chloro-1H-benzoimidazol-2-yloxy)-phthalic acid dimethyl ester] | < 10 µM
Cc1cc(Oc2nc3cc(-c4ccc(-c5ccccc5)cc4)c(Cl)cc3[nH]2)cc(C(=O)O)c1C [Example 11, 5-(5-Biphenyl-4-yl-6-chloro-1H-benzoimidazol-2-yloxy)-2,3-dimethyl-benzoic acid] | < 10 µM
COC(=O)c1c(C)cc(Oc2nc3cc(-c4ccc(-c5ccccc5)cc4)c(Cl)cc3[nH]2)cc1C(=O)O [Example 12, 5-(5-Biphenyl-4-yl-6-chloro-1H-benzoimidazol-2-yloxy)-3-methyl-phthalic acid 2-methyl ester] | < 10 µM
COC(=O)c1cc(Oc2nc3cc(-c4ccc(-c5ccccc5)cc4)c(Cl)cc3[nH]2)cc(C)c1C [Example 14, 5-(5-Biphenyl-4-yl-6-chloro-1H-benzoimidazol-2-yloxy)-2,3-dimethyl-benzoic acid methyl ester] | < 10 µM
COC(=O)c1cc(Oc2nc3cc(-c4ccc(-c5ccccc5)cc4)c(Cl)cc3[nH]2)cc(C)c1C(=O)OC [Example 15, 5-(5-Biphenyl-4-yl-6-chloro-1H-benzoimidazol-2-yloxy)-3-methyl-phtalic acid dimethyl ester] | < 10 µM
O=C1Cc2cc(Oc3nc4cc(-c5ccc(-c6ccccc6)cc5)c(Cl)cc4[nH]3)ccc2O1 [Example 16, 5-(5-Biphenyl-4-yl-6-chloro-1H-benzoimidazol-2-yloxy)-3H-benzofuran-2-one] | < 10 µM
O=C(O)Cc1cc(Oc2nc3cc(-c4ccc(-c5ccccc5)cc4)c(Cl)cc3[nH]2)ccc1O [Example 17, [5-(5-Biphenyl-4-yl-6-chloro-1H-benzoimidazol-2-yloxy)-2-hydroxy-phenyl]-acetic acid] | < 10 µM
NC(C(=O)O)c1ccc(Oc2nc3cc(-c4ccc(-c5ccccc5)cc4)c(Cl)cc3[nH]2)cc1 (stereo not shown) [Example 18, Amino-[4-(5-biphenyl-4-yl-6-chloro-1H-benzoimidazol-2-yloxy)-phenyl]-acetic acid] | < 10 µM
O=C(O)C(O)c1cccc(Oc2nc3cc(-c4ccc(-c5ccccc5)cc4)c(Cl)cc3[nH]2)c1 (stereo not shown) [Example 19] | < 10 µM

SMILES | EC50
O=C(O)C(O)c1ccc(Oc2nc3cc(-c4ccc(-c5ccccc5)cc4)c(Cl)cc3[nH]2)cc1 (stereo not shown) [Example 20, [4-(5-Biphenyl-4-yl-6-chloro-1H-benzoimidazol-2-yloxy)-phenyl]-hydroxy-acetic acid] | < 10 µM
O=C(O)Cc1cc(O)cc(Oc2nc3cc(-c4ccc(-c5ccccc5)cc4)c(Cl)cc3[nH]2)c1 [Example 21, [3-(5-Biphenyl-4-yl-6-chloro-1H-benzoimidazol-2-yloxy)-5-hydroxy-phenyl]-acetic acid] | < 10 µM
O=C(O)Cc1cccc(Oc2nc3cc(C#Cc4ccccc4)c(Cl)cc3[nH]2)c1 [Example 22, [3-(6-Chloro-5-phenylethynyl-1H-benzoimidazol-2-yloxy)-phenyl]-acetic acid] | < 10 µM
NC(=O)Cc1cccc(Oc2nc3cc(C#Cc4ccccc4)c(Cl)cc3[nH]2)c1 [Example 23, 2-[3-(6-Chloro-5-phenylethynyl-1H-benzoimidazol-2-yloxy)-phenyl]-acetamide] | < 10 µM
O=C(O)CCc1cccc(Oc2nc3cc(C#Cc4ccccc4)c(Cl)cc3[nH]2)c1 [Example 24, 3-[3-(6-Chloro-5-phenylethynyl-1H-benzoimidazol-2-yloxy)-phenyl]-propionic acid] | < 10 µM
O=C(O)CCc1ccc(Oc2nc3cc(-c4ccc(-c5ccccc5)cc4)c(Cl)cc3[nH]2)cc1 [Example 25, 3-[4-(5-Biphenyl-4-yl-6-chloro-1H-benzoimidazol-2-yloxy)-phenyl]-propionic acid] | < 10 µM
O=C(O)Cc1ccc(Oc2nc3cc(-c4ccc(-c5ccccc5)cc4)c(Cl)cc3[nH]2)cc1 [Example 26, [4-(5-Biphenyl-4-yl-6-chloro-1H-benzoimidazol-2-yloxy)-phenyl]-acetic acid] | < 10 µM
Cc1cc(Oc2nc3cc(-c4ccc(-c5ccccc5)cc4)c(Cl)cc3[nH]2)cc(O)c1C(=O)O [Example 27, 4-(5-Biphenyl-4-yl-6-chloro-1H-benzoimidazol-2-yloxy)-2-hydroxy-6-mehtyl-benzoic acid] | < 10 µM
O=C(O)c1cc(Oc2nc3cc(-c4ccc(-c5ccccc5)cc4)c(Cl)cc3[nH]2)ccc1O [Example 28, 5-(5-Biphenyl-4-yl-6-chloro-1H-benzoimidazol-2-yloxy)-2-hydroxy-benzoic acid] | < 10 µM
O=C1NC(=O)C(c2ccc(Oc3nc4cc(-c5ccc(-c6ccccc6)cc5)c(Cl)cc4[nH]3)cc2)N1 (stereo not shown) [Example 29, 5-[4-(5-Biphenyl-4-yl-6-chloro-1H-benzoimidazol-2-yloxy)-phenyl]-imidazolidine-2,4-dione] | < 10 µM
NC(=O)c1ccc(Oc2nc3cc(-c4ccc(-c5ccccc5)cc4)c(Cl)cc3[nH]2)cc1 [Example 30, 4-(5-Biphenyl-4-yl-6-chloro-1H-benzoimidazol-2-yloxy)-benzamide] | < 10 µM
COC(=O)c1ccc(Oc2nc3cc(-c4ccc(-c5ccccc5)cc4)c(Cl)cc3[nH]2)cc1O [Example 31, 4-(5-Biphenyl-4-yl-6-chloro-1H-benzoimidazol-2-yloxy)-2-hydroxy-benzoic acid methyl ester] | < 10 µM
O=C(O)c1ccc(Oc2nc3cc(-c4ccc(-c5ccccc5)cc4)c(Cl)cc3[nH]2)cc1O [Example 32, 4-(5-Biphenyl-4-yl-6-chloro-1H-benzoimidazol-2-yloxy)-2-hydroxy-benzoic acid] | < 10 µM
Clc1cc2[nH]c(Oc3cccc(-c4nn[nH]n4)c3)nc2cc1-c1ccc(-c2ccccc2)cc1 [Example 33, 5-Biphenyl-4-yl-6-chloro-2-[3-(2H-tetrazol-5-yl)-phenoxy]-1H-benzoimidazol] | < 10 µM
O=C(O)c1cncc(Oc2nc3cc(-c4ccc(-c5ccccc5)cc4)c(Cl)cc3[nH]2)c1 [Example 34, 5-(5-Biphenyl-4-yl-6-chloro-1H-benzoimidazol-2-yloxy)-nicotinic acid] | < 10 µM
O=C(O)c1cc(O)cc(Oc2nc3cc(-c4ccc(-c5ccccc5)cc4)c(Cl)cc3[nH]2)c1 [Example 35, 3-(5-Biphenyl-4-yl-6-chloro-1H-benzoimidazol-2-yloxy)-5-hydroxy-benzoic acid] | < 10 µM
O=C(O)c1ccc(Oc2nc3cc(-c4ccc(-c5ccccc5)cc4)c(Cl)cc3[nH]2)cc1C(=O)O [Example 36, 4-(5-Biphenyl-4-yl-6-chloro-1H-benzoimidazol-2-yloxy)-phthalic acid] | < 10 µM
